Assay results taken from US20250368686A1, “PEPTIDE DRUGS FOR S[…] D[…] BLOCKING HOMO- AND HETERO-DIMERIZATION OF OPIOID RECEPTORS” (OKINAWA INSTITUTE OF SCIENCE AND TECHNOLOGY SCHOOL …, priority 2022, published 2025).
These are yes or no findings as the source states them, for the method shown. Some entries that bind do so weakly or less than the wild type.

The chains behind the UniProt entries cited, without tags or fusion partners. Residues count along the entry.
UniProt P33535: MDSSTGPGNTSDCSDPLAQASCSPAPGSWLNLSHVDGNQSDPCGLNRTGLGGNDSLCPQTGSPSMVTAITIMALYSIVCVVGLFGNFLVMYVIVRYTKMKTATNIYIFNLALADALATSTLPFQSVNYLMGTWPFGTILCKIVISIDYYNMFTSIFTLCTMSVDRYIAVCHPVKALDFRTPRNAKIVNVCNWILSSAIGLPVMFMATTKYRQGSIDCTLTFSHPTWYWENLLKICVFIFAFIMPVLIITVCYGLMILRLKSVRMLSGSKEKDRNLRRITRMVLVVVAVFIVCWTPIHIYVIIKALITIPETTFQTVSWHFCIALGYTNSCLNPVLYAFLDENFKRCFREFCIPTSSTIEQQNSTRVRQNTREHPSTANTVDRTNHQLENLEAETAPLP
UniProt P33533, residues 207-238: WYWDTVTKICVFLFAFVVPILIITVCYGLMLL

Biological target: µ-type opioid receptor (MOR), rat, wild type, fluorescently tagged, expressed in the PM of CHO-K1 cells (Example 1) (rat) (UniProt P33535)
Assay: colocalisation index, SNAPf-tagged construct co-expressed with WT-MOR

## DOR's TM5 conjugated with the SNAPf tag (from UniProt P33533 207-238)
  binding: binds
